Results are given in words; binding and its absence hold for the method and conditions named. Some results given as binding are weak or reduced against the parent protein; the word gives no strength.
Legend:
[1] = target: T1, mouse CD276 on mouse TNBC 4T1 cells (mouse) (UniProt Q8VE98); experiment: live-cell confocal microscopy, 4T1 cells (legend of FIG. 3)
T1 sequence (looked up): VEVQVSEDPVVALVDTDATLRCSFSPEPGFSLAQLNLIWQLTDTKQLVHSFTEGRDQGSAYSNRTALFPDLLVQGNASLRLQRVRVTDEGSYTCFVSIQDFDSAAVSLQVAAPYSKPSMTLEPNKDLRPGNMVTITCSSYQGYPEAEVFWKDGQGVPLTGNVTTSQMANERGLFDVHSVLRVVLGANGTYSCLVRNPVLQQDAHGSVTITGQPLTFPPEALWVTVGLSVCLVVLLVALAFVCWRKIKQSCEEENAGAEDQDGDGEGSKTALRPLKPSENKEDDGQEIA

[2] = target: T1, mouse CD276 on mouse TNBC 4T1 cells (mouse); experiment: live-cell confocal microscopy, 4T1 cells
[3] = target: T1, mouse CD276 on mouse TNBC 4T1 cells (mouse); experiment: in vivo and ex vivo IVIS imaging, Cy5.5-labelled mAb, 4T1-FLuc tumours in BALB/cJ mice
[4] = target: T2, human CD276 (B7-H3) on human TNBC cells (MDA-MB-231, MDA-MB-468) (human) (UniProt Q5ZPR3); experiment: live-cell confocal microscopy, MDA-MB-468 cells (legend of FIG. 3)
T2 sequence (looked up): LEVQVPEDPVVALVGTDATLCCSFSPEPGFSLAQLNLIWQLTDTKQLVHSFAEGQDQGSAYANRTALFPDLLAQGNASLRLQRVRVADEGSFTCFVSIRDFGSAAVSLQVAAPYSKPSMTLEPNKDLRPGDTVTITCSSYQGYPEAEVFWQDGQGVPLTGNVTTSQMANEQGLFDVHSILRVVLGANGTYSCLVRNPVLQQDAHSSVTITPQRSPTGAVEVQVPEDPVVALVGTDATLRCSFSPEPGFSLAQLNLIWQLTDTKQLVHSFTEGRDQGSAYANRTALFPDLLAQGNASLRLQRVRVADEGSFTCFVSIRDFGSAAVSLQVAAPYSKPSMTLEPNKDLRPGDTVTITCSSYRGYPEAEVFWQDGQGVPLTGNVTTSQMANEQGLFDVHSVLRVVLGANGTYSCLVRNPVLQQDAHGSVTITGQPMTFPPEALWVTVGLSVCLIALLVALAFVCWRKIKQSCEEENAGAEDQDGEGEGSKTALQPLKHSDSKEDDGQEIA

[5] = target: T2, human CD276 (B7-H3) on human TNBC cells (MDA-MB-231, MDA-MB-468) (human); experiment: live-cell confocal microscopy, MDA-MB-468 cells
[6] = target: T2, human CD276 (B7-H3) on human TNBC cells (MDA-MB-231, MDA-MB-468) (human); experiment: in vivo and ex vivo IVIS imaging, Cy5.5-labelled mAb, MDA-MB-468-FLuc xenograft in NSG mice

Measured: binding

B1: anti-CD276 mAb (top hybridoma clone, IgG2b/kappa) (antibody, V domains shown)
VH: EVQLQQSGPELVKPGASVKISCKTSGYTFTEYTMHWVKQSHGKSLEWIGSNNPNTGGTTYNQKFKDKATLTVDKSSNTAYMELRSLTSDDSAVYYCSRSGNDVGWYFAVWGAGTTVTVSS
VL: QIVLTQSPAIMSASPGEKVTMTCTATSSVSYMHWYQQKSDSSPKRWIYDTSKLASGVPDRFSGSGSGTSYSLIISSMEAEDAATYYCQQWSSNPLTFGAGTKLELKR
binds: [1] | [2] | [3] | [4] | [5] | [6]
